From publication PMC12431657, “Discovery and mechanistic insights of dibenzoylmethane as a broad spectrum inhibitor of coronavirus” (PLOS Pathogens, 2025)
Where a name gives a salt, the structure may show the parent alone. Read-outs that look alike come from different tables or passages of the source. Screen size: about 3,300 compounds; about 60 (2%) showed an effect of 50% or more. This is one part of the list.

Tested on: HCoV-OC43
Design: species or system RD; HTS, protection from HCoV-OC43 induced cell death, luminescent cell viability (CellCounting-Lite 2.0), inhibition rate
Details: 24 h post infection, 1 h compound pre-incubation, 10 µM, inhibitor

SMILES | OC43 Inhibition rate [%] | OC43 Inhibition rate (OC43 Inhibition rate, 24 h) [%]
C[C@H]1[C@H](C)CC[C@]2(C)CC[C@]3(C)C(=CC[C@@H]4[C@@]5(C)CC[C@@H](O)[C@](C)(C(=O)O)[C@@H]5CC[C@]43C)[C@H]12 [β-Boswellic acid] | -0.2 | 
C[C@@H](O)CO [(R)-(-)-1,2-Propanediol] | -0.2 | 
CC[C@@H]1CN2CC[C@]3(C(=O)Nc4ccccc43)[C@@H]2C[C@@H]1/C(=C\OC)C(=O)OC [Corynoxine B] | -0.5 | 
C[C@@H]1O[C@@H](O[C@H]2[C@H](O[C@H]3CC[C@@]4(C)[C@@H](CC[C@]5(C)[C@@H]4CC=C4[C@@H]6CC(C)(C)CC[C@]6(C(=O)O)CC[C@]45C)[C@]3(C)CO)OC[C@H](O)[C@@H]2O)[C@H](O)[C@H](O)[C@H]1O [alpha-Hederin] | -3 | 
C[C@H](CCC(=O)O)[C@H]1CC[C@H]2[C@@H]3C(=O)C[C@@H]4CC(=O)CC[C@]4(C)[C@H]3CC(=O)[C@]12C [Dehydrocholate (sodium)] | -1 | 
O=C(O)CCCCCC(=O)O [Pimelic acid] | 0 | 
CCCCCCCCCCCCCCCc1cccc(O)c1C(=O)O [Anacardic Acid] | -3.2 | 
C[C@H](CCC(=O)NCC(=O)O)[C@H]1CC[C@H]2[C@@H]3[C@H](O)C[C@@H]4C[C@H](O)CC[C@]4(C)[C@H]3CC[C@]12C [Glycochenodeoxycholic acid] |  | 0.1
COC(=O)/C=C/C(=O)OC [Dimethyl fumarate] | -0.3 | 
CC(C)=CCC[C@](C)(O)[C@H]1CC[C@]2(C)[C@@H]1[C@H](O)C[C@@H]1[C@@]3(C)CC[C@H](O)C(C)(C)[C@@H]3[C@@H](O[C@@H]3O[C@H](CO)[C@@H](O)[C@H](O)[C@H]3O[C@@H]3O[C@@H](C)[C@H](O)[C@@H](O)[C@H]3O)C[C@]12C [Ginsenoside Rg2] | -0.5 | 
C[C@]12CC[C@@H](O)C[C@H]1CC[C@@H]1[C@@H]2[C@@H](O)C[C@@]2(C)[C@H]1CC[C@]2(O)C(=O)CO [Tetrahydrocortisol] | -0.2 | 
COc1ccc(-c2oc3cc(O)cc(O)c3c(=O)c2O)cc1O [Tamarixetin] | 1.3 | 
COc1cc(O)cc(OC)c1OC [Antiarol] | -0.8 | 
CCCCCCCCCCCC(C)=O [2-Tridecanone] | 0.6 | 
C[N+](C)(C)[C@@H](Cc1c[nH]c2ccccc12)C(=O)[O-] [Hypaphorine] | 7.3 | 
O=c1[nH]c(=O)c2nc[nH]c2[nH]1 [Xanthine] | -0.6 | 
CC1(C)CC[C@]2(C(=O)O)CC[C@]3(C)C(=CC[C@@H]4[C@@]5(C)CC[C@H](O[C@@H]6O[C@H](C(=O)O)[C@@H](O)[C@H](O)[C@H]6O)C(C)(C)[C@@H]5CC[C@]43C)[C@@H]2C1 [Calenduloside E] | -3.6 | 
CCOC(=O)c1cc(O)c(O)c(O)c1 [Ethyl gallate] | 0.3 | 
C[C@@H]1O[C@@H](O[C@H]2[C@H](Oc3cc(O)c4c(=O)cc(-c5ccc(O)c(O)c5)oc4c3)O[C@H](CO)[C@@H](O)[C@@H]2O)[C@H](O)[C@H](O)[C@H]1O [Lonicerin] | 0.3 | 
CN1CCN2c3ccccc3Cc3ccccc3C2C1 (stereo not drawn) [Mianserin (hydrochloride)] | 0.8 | 
O=c1c2ccccc2[nH]c2ccccc12 [Acridone] | 2.3 | 
CC(C)=CCc1cc(C(=O)/C=C/c2ccc(O)cc2)c(O)cc1O [Bavachalcone] | -1.3 | 
CC(C)=CCc1c(-c2ccc(O)c3c2OC(C)(C)C=C3)oc2cc(O)cc(O)c2c1=O [Kuwanon A] | -28.4 | 
C/C=C(/C)C(=O)O[C@H]1c2cc(OC)c(OC)c(OC)c2-c2c(cc3c(c2OC)OCO3)C[C@H](C)[C@]1(C)O [Schisantherin B] | 1.4 | 
C[C@H]1[C@H](C)CC[C@]2(C(=O)O)CC[C@]3(C)C(=CC[C@@H]4[C@@]5(C)C[C@@H](O)[C@H](O)[C@@](C)(CO)[C@@H]5[C@H](O)C[C@]43C)[C@H]12 [Madecassic acid] | -0.2 | 
CCOC(N)=O [Urethane] | 4.9 | 
COc1ccc2c(c1)O[C@H]1c3ccc(O)cc3OC[C@@H]21 [Medicarpin] | 0.2 | 
COc1ccc2cc1Oc1ccc(cc1)C[C@H]1c3cc(c(OC)cc3CCN1C)Oc1c(O)c(OC)cc3c1[C@H](C2)N(C)CC3 [Fangchinoline] | 41.6 | 
O=C1C[C@@H](c2ccc(O)c(O)c2)Oc2c1ccc(O[C@@H]1O[C@H](CO)[C@@H](O)[C@H](O)[C@H]1O)c2O [Flavanomarein] | -5.7 | 
O=C1c2cccc(O)c2C(=O)c2c(O)cccc21 [Danthron] | 0.8 | 

3 entries from above, ordered by length of the SMILES, ascending.
SMILES | OC43 Inhibition rate [%] | OC43 Inhibition rate (OC43 Inhibition rate, 24 h) [%]
CC(C)=CCc1c(-c2ccc(O)c3c2OC(C)(C)C=C3)oc2cc(O)cc(O)c2c1=O [Kuwanon A] | -28.4 | 
C[C@H](CCC(=O)O)[C@H]1CC[C@H]2[C@@H]3C(=O)C[C@@H]4CC(=O)CC[C@]4(C)[C@H]3CC(=O)[C@]12C [Dehydrocholate (sodium)] | -1 | 
C[C@H]1[C@H](C)CC[C@]2(C(=O)O)CC[C@]3(C)C(=CC[C@@H]4[C@@]5(C)C[C@@H](O)[C@H](O)[C@@](C)(CO)[C@@H]5[C@H](O)C[C@]43C)[C@H]12 [Madecassic acid] | -0.2 | 
